Test system: D-gal-induced AD mice
Assay: Immunohistochemistry of brain in D-gal-induced AD mice
Type: in vivo
Conditions: compared with the D-gal group
Experimental: Each group comprised 10 mice. […] Dosing lasted for 10 weeks. […] The mice were sacrificed after 10 weeks of administration.
Firstly, the three mice of each group were subjected to heart perfusion at the end of the animal experiment, and the whole brain was removed and placed in 15 mL of 4% paraformaldehyde and stored at 4 °C for 24 h. Secondly, we changed 4% paraformaldehyde into 15% sucrose solution and stored the solution at 4 °C for 24 h. We then changed the solution to 30% sucrose solution to dehydrate for 2 days. Thirdly, the mouse brain tissue was embedded in a cryo-embedding medium, and about 80 slices with a thickness of 20 μm were cut in the hippocampus using a cryostat (Thermal Fisher, Shanghai, China). The sections of mice in each group were immunohistochemically stained with primary antibodies, such as neuronal nuclear anti gen (NeuN), ionized calcium-binding adapter molecule 1 (Iba-1), inducible nitric oxide synthase (iNOS, pro-inflammatory factors), synaptophysin (Syp), and glial fibrillary acidic protein (GFAP), and secondary antibody. The product number and usage ratios of primary and secondary antibodies are detailed in Supplementary Table S4. Finally, the sections were observed under an upright two-photon confocal microscope (Olympus BX61, Tokyo, Japan) and recorded by a camera. The pictures were digitized with ImageJ software V1.8.0.112 (National Institutes of Health, Bethesda, MD, USA).

[1] = DON 3 mg/kg, GENI 12.5, 25, 50 mg/kg groups

**Q.** What does the source list for `COc1cc2c(cc1OC)C(=O)C(CC1CCN(Cc3ccccc3)CC1)C2` (centres unmarked) [DON, donepezil, reference compound]?
**A.** activation of astrocytes (GFAP) in the cerebral cortex: decreased; activation of microglia (Iba-1) in the cerebral cortex: decreased; expression of iNOS in the cerebral cortex: decreased; Syp intensity in the cerebral cortex [1]: significantly increased; mature neurons (NeuN) in the cerebral cortex and hippocampus [1]: significantly increased
